# Laboratory results taken from PubChem BioAssay AID330 (DTP/NCI, 2004).
# The list does not hold the whole screen: it is rich in T/C values a quarter to a half above the control, in often repeated tests (any T/C) and in doses without a T/C. Further doses and runs are listed elsewhere. T/C: endpoint of the treated group in % of that of the vehicle group. Some doses have a count of surviving animals in place of a T/C: the source holds a T/C of zero for them, seemingly a mark for toxic or unscored doses. Some survivor counts are full or nearly so, which does not show that the dose was tolerated: survival well below the control is almost never listed, so the zero probably covers shortened survival too. Survivors were counted at the toxicity check, usually on the fifth day, unless a day is given; later deaths do not show. Schedules are NCI's codes, taken here to give the interval after Q, in days (D) or hours (H), and the number of doses after X. Some structures stand for samples that the source files as different forms (salt, stereo form or complex); doses refer to the form tested. Some entries hold several experiments; the results are listed from low to high. Where survival is the endpoint, the PubChem record calls one and a half times the control and up active, and a quarter to a half above the control has no call in these data; cut-offs in other NCI protocols can differ.
# Test system: P388 leukemia ip, CD2F1 mice, survival T/C
# Assay: NCI In Vivo Anticancer Drug Screen. Data for tumor model P388 Leukemia (intraperitoneal) in CD2F1 (CDF1) mice
# Details: T/C endpoint: median survival time, higher T/C = longer survival
# [1] = dose: 200.0 mg/kg/injection, schedule: Q01DX009 (ip), vehicle: saline with Tween-80
# [2] = dose: 200.0 mg/kg/injection, schedule: Q01DX009 (ip), vehicle: saline
# [3] = dose: 100.0 mg/kg/injection, schedule: Q01DX005 (ip), vehicle: saline with Tween-80
# [4] = dose: 200.0 mg/kg/injection, schedule: Q01DX005 (ip), vehicle: saline with Tween-80
# [5] = dose: 100.0 mg/kg/injection, schedule: Q01DX009 (ip), vehicle: saline
smiles,measurement,setting,value
C=C(Cl)C(=NC(C)(C)C)Nc1ccccc1Cl,survivor count,"dose: 100.0 mg/kg/injection, schedule: Q01DX005 (ip), vehicle: saline",1 of 6
same,survivor count,"dose: 200.0 mg/kg/injection, schedule: Q01DX005 (ip), vehicle: saline",0 of 6 and 1 of 6
Nc1ccc(C(=O)c2ccccc2)cc1,survivor count,[1],4 of 6
C=C=C(COC(C)=O)ON1CCC(C)CC1,survivor count,"dose: 72.5 mg/kg/injection, schedule: Q01DX001 (ip), vehicle: saline",0 of 6
same,survivor count,"dose: 145.0 mg/kg/injection, schedule: Q01DX001 (ip), vehicle: saline",0 of 6
same,survivor count,"dose: 290.0 mg/kg/injection, schedule: Q01DX001 (ip), vehicle: saline",1 of 6
CC(C)NCC(O)COc1ccccc1C1CC1 (configuration not stated),survivor count,[2],0 of 6
CCCC1c2c(ccc3c2OCO3)CC[N+]1(C)CCN(CC)CC (configuration not stated),survivor count,"dose: 50.0 mg/kg/injection, schedule: Q01DX005 (ip), vehicle: saline with Tween-80",3 of 6
same,survivor count,[3],0 of 6
same,survivor count,[4],0 of 6
CCCC1CCCCN1Cc1ccccc1 (configuration not stated),survivor count,[4],0 of 6
CSc1nc(-c2ccccc2)c(C(=O)NC(C)CN2CCCCC2)s1 (configuration not stated),survivor count,"dose: 240.0 mg/kg/injection, schedule: Q01DX005 (ip), vehicle: saline with Tween-80",1 of 6
C[N+](C)(C)CCC(=O)c1ccc(O)cc1,survivor count,"dose: 50.0 mg/kg/injection, schedule: Q01DX009 (ip), vehicle: saline",1 of 6
same,survivor count,[5],0 of 6
same,survivor count,[2],0 of 6
COC1NC(=O)NC(=O)C1=[N+]=[N-] (configuration not stated),T/C,"dose: 0.62 mg/kg/injection, schedule: Q01DX009 (ip), vehicle: saline",131 % of control
same,T/C,"dose: 1.25 mg/kg/injection, schedule: Q01DX009 (ip), vehicle: saline",140 % of control
same,T/C,"dose: 2.5 mg/kg/injection, schedule: Q01DX009 (ip), vehicle: saline sonified",140 % of control
same,T/C,"dose: 3.3 mg/kg/injection, schedule: Q01DX009 (ip), vehicle: saline with Tween-80",141 % of control
same,T/C,"dose: 300.0 micrograms/kg/injection, schedule: Q01DX009 (ip), vehicle: saline",131 % of control
CN(C)c1ccc2c(N(C)C)cc(N(C)C)[n+](C)c2c1,survivor count,"dose: 3.12 mg/kg/injection, schedule: Q01DX009 (ip), vehicle: distilled water + Tween-80 + alcohol",0 of 6
same,survivor count,"dose: 6.25 mg/kg/injection, schedule: Q01DX009 (ip), vehicle: other",2 of 6
same,survivor count,"dose: 12.5 mg/kg/injection, schedule: Q01DX009 (ip), vehicle: other",0 of 6
same,survivor count,"dose: 25.0 mg/kg/injection, schedule: Q01DX009 (ip), vehicle: other",0 of 6
same,survivor count,"dose: 50.0 mg/kg/injection, schedule: Q01DX009 (ip), vehicle: other",0 of 6
same,survivor count,"dose: 100.0 mg/kg/injection, schedule: Q01DX009 (ip), vehicle: other",0 of 6
same,survivor count,"dose: 200.0 mg/kg/injection, schedule: Q01DX009 (ip), vehicle: other",0 of 6
CCCN(CCC)C(=O)c1ccc([N+](=O)[O-])cc1,survivor count,"dose: 25.0 mg/kg/injection, schedule: Q01DX009 (ip), vehicle: saline with Tween-80",6 of 6
same,T/C,"dose: 50.0 mg/kg/injection, schedule: Q01DX009 (ip), vehicle: saline with Tween-80",141 % of control
CC(=O)C[n+]1ccc(C)cc1Sc1ccccc1C,T/C,[3],125 % of control
same,survivor count,[4],0 of 5
CC1(C)Nc2cccc3c(N=Nc4ccc(N=Nc5ccccc5)c5ccccc45)ccc(c23)N1,T/C,[1],125 % of control
O=C1C=CC(=O)N1c1ccc(O)cc1,survivor count,"dose: 5.0 mg/kg/injection, schedule: Q01DX009 (ip), vehicle: saline sonified",6 of 6
CCCCCCCCCCCCC[N+](C)([O-])CCCCCC[N+](C)([O-])CCCCCCCCCCCCC (configuration not stated),survivor count,"dose: 100.0 mg/kg/injection, schedule: Q01DX009 (ip), vehicle: Klucel (hydroxypropylcellulose) (HPC)",4 of 6
same,survivor count,"dose: 200.0 mg/kg/injection, schedule: Q01DX009 (ip), vehicle: Klucel (hydroxypropylcellulose) (HPC)",0 of 6
CC(=O)c1cc[n+](Cc2cc3ccccc3nc2Br)cc1,survivor count,"dose: 100.0 mg/kg/injection, schedule: Q04DX002 (ip), vehicle: saline",0 of 6
same,survivor count,"dose: 200.0 mg/kg/injection, schedule: Q04DX002 (ip), vehicle: saline",0 of 6
same,survivor count,"dose: 400.0 mg/kg/injection, schedule: Q04DX002 (ip), vehicle: saline",0 of 6
C=C1C=[n+]2ccccc2=N1,survivor count,[5],1 of 6
CCC(C)C(=O)Nc1ccccc1-c1ccccc1 (configuration not stated),survivor count,[5],6 of 6
same,survivor count,[2],6 of 6
COc1ccc(-c2c3c(cc4cc5c(cc24)OCO5)C(=O)OC3)cc1OC,survivor count,"dose: 192.0 mg/kg/injection, schedule: Q01DX009 (ip), vehicle: Klucel (hydroxypropylcellulose) (HPC)",5 of 5
